The whole screen tested about 340,000 compounds, of which about 4,500 (1.3%) were called active. The shares of active, inactive and inconclusive entries below differ from those in the screen. Calls come from the whole dose curve; as a rule, active = well fitted inhibition curve with a large enough effect; inconclusive = small, poorly fitted or top-dose-only effect, or another doubt; inactive = no such curve, though single readings can be large or run the other way. A potency beside an inconclusive call is a rough fit, not a confirmed value.
Molecular target: DNA polymerase beta (Homo sapiens) (UniProt P06746)
Test: qHTS Assay for Inhibitors of DNA Polymerase Beta
Settings: Pol beta primer extension/strand displacement, fluorescence kinetic; activity change, negative = inhibition: at 114 µM (top of the series)
How it was run: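 Values derive from four-parameter Hill fits of normalized kinetic data: reads at 0 and 10 min following addition of 50 nM substrate to 10 nM Pol beta preincubated 15 min with compound.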
% is set by controls: 0 for no effect and ±100 for the full control effect; potency is the fitted concentration of half-maximal effect.

SMILES	Potency	activity change, negative = inhibition
CCOC(=O)NN1C(=O)c2ccccc2NC1c1ccccc1F (stereo not drawn)	inconclusive: 100 µM [inhibitor, single point]	
O=C(c1cc(-c2ccncc2)nc2ccc(Cl)cc12)N1CCN(Cc2ccc3c(c2)OCO3)CC1	inconclusive: 89.1 µM [inhibitor, single point]	
CCOc1cc(/C=C2\C(=N)N3N=C(CC)SC3=NC2=O)ccc1OCCOc1ccc(NC(C)=O)cc1	active: 50.1 µM	
COc1ccc(Nc2nc(N)c3cc(OC)c(OC)cc3n2)cc1	inconclusive: 0.398 µM [inhibitor, full curve, poor fit]	
O=C(NCC(c1cccs1)N1CCOCC1)c1cc(-c2ccccn2)nc2ccccc12 (stereo not drawn)		inconclusive: -32.4% [inhibitor]
CCOC(=O)c1oc2ccc(S(=O)(=O)n3nc(-c4ccc(Br)cc4)cc3N)cc2c1C		inactive: 11.1%
O=C(Nc1ccc(S(=O)(=O)Nc2ncccn2)cc1)c1ccccc1Cl	inconclusive: 39.8 µM [inhibitor, partial curve]	
Cc1cc2oc(C(=O)Nc3ccc(S(=O)(=O)Nc4onc(C)c4C)cc3)cc(=O)c2cc1Cl		inconclusive: -33.7% [inhibitor]
COc1ccccc1OCCc1nnc(N)s1	inconclusive: 25.1 µM [inhibitor, single point]	
Cc1ccc2c(c1)N(C(=O)CCC(=O)NCc1ccccc1Cl)CC(C)O2 (stereo not drawn)	inconclusive: 100 µM [inhibitor, single point]	
Nc1ccc(C(=O)N2CCN(S(=O)(=O)c3ccc4c(c3)OCCO4)CC2)cc1[N+](=O)[O-]		inactive: 42.1%
COC(=O)CCC(=O)Nc1cccc2c(NC(=O)CCC(=O)OC)cccc12	inconclusive: 12.6 µM [inhibitor, single point]	
CN(C)S(=O)(=O)N1CCC(Oc2cccc(C(=O)NC3CCOC3)c2)CC1 (stereo not drawn)	inconclusive: 0.794 µM [inhibitor, full curve, poor fit]	
CC(/C=N/NC(=O)Cn1cnc2ccccc21)=C\c1ccccc1	inconclusive: 79.4 µM [inhibitor, single point]	
Cc1ccc(S(=O)(=O)N2CCN(C(=S)NCCc3ccccc3)CC2)cc1	inconclusive: 89.1 µM [inhibitor, single point]	
COc1ccc(OCc2nnc(SCC(=O)Nc3cccc(Cl)c3)o2)cc1		inactive: 3.8%
CC(=O)Nc1ccc(/C=C2\Sc3ccccc3C2=O)cc1	inconclusive: 11.2 µM [inhibitor, partial curve]	
CC(=O)c1ccc(NC(=O)c2sc(-n3nc(C)c(Cc4ccccc4)c3C)nc2C)cc1		inactive: 0.769%

Record cards, from the list above:
`CCOC(=O)c1oc2ccc(S(=O)(=O)n3nc(-c4ccc(Br)cc4)cc3N)cc2c1C` in the list: activity change, negative = inhibition: inactive: 11.1%
`O=C(Nc1ccc(S(=O)(=O)Nc2ncccn2)cc1)c1ccccc1Cl` in the list: Potency: inconclusive: 39.8 µM [inhibitor, partial curve]
